At least one peptide structure holds a part that was inferred or is arguable (an end, a ring closure or a residue). Ends that are not written are not given here.
Experiments:
[1] = system: Cells; test: Cell adhesiveness after EDTA, cyclohexamide or serum treatment; format: cell-based; conditions: FIG. 4A
[2] = system: MC3T3-E1; test: Comparative cell attachment experiment with soluble RGDs (CCK-8); format: cell-based, Mouse; conditions: A7-1 10 μM with RGDs 0, 10, 100 and 1000 μM; FIG. 4C
Method: The present peptide A7-1 (10 μM) or A7-1 together with soluble RGDs peptide (0, 10, 100 and 1000 μM) for competition assay were added to anchorage dependent cells MC3T3-E1 in a test tube and incubated for 10 min. Then the cells were transferred to a culture plate and incubated for 10 min in a thermostatic incubator to allow the cells to attach. After 10 min, the medium was removed and the cells were washed 2 times with PBS to remove any unattached cells and a fresh medium without the peptide and CCK-8 (Dojindo) were added to the cells and incubated for 1 hr in a thermostatic incubator. Then the absorbance was measured at 450 nm. The medium mixed with CCK-8 only was used as a blank.

[3] = system: primary nerve cell; test: Attachment and culture of primary nerve cells (CCK-8, microscopy); format: cell-based, mouse; conditions: 100 μM coating, vs laminin and poly-L-ornithin; FIG. 9
[4] = system: MSCs (Mesenchymal Stem cell); test: Adhesion progression of MSC on coated coverslip; format: cell-based, Human; conditions: 100 μM coated coverslip, 6 hrs; FIG. 10A

RQLVVKFRALPC [A7-1]
effect of EDTA or CHX on the adhesiveness of the cells ([1]; CHX 10 μM, 37° C. for 1 hr): does not affect the adhesiveness of the cells
effect of serum on the adhesiveness of the cells [1]: inhibits the adhesiveness of the cells at early stage
adhesiveness of the cells on addition of soluble RGDs [2]: not affected at all
cell attachment by CCK-8 [3]: significantly different from other groups
adhesion progression stage (actin staining) [4]: in the stress fiber formation stage

From US10851132B2, “Protein based adhesive composition and method” (SEWON BIOTECHNOLOGY INC., priority 2015, dated 2020)
